Measured values: PubChem BioAssay AID540275 (National Center for Advancing Translational Sciences (NCATS), 2011)
In all, about 320,000 compounds went through this assay and about 620 (0.19%) were called active. The shares of active, inactive and inconclusive entries below differ from those in the screen. Rule as the data show it: active = activation above about 80%; inconclusive = between about 30% and that limit; inactive = weaker than that.

Protein sequences, listed by entry. Tags and fused reporters are not part of them.
UniProt Q8NER1, whole entry, looked up: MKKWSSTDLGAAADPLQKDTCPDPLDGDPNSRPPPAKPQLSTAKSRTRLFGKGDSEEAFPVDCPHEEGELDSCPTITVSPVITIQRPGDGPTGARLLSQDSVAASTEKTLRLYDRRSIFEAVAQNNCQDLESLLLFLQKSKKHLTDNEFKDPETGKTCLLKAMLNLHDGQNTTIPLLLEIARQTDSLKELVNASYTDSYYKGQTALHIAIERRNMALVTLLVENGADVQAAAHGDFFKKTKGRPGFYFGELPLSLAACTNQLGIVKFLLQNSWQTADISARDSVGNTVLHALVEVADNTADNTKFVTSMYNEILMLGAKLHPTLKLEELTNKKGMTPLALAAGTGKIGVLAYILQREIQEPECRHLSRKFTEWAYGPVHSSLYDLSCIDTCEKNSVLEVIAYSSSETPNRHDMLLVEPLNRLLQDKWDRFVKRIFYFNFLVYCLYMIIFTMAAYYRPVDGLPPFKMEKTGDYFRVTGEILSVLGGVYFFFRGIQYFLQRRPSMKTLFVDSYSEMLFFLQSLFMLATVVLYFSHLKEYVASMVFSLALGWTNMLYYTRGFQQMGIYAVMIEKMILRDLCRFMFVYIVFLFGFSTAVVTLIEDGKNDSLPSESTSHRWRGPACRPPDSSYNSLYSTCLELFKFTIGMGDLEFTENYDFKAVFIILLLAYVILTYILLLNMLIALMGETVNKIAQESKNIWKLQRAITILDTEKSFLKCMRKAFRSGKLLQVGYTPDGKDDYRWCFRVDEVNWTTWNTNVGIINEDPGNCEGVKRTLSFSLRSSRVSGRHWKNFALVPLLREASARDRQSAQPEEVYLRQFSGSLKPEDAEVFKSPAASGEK

molecular target: Transient receptor potential cation channel subfamily V member 1 (Homo sapiens) (UniProt Q8NER1); experiment: HTS Assay for Compounds that Act as Agonists of the Vanilloid Receptor 1; settings: TRPV1-expressing cells, Fluo-8 calcium influx, agonist mode; at 8.33 µM, active compounds read high; also: 0% is about no effect
How it was run: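 TRPV1-expressing cells were cultured overnight at 35.5C and loaded with Fluo-8 calcium dye for 40 to 90 min at room temperature. After a 10 s baseline, compound was added and calcium influx was read kinetically for 3 min (ex 480/em 520 nm).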

**Q.** How did the activation turn out when `CCCCSc1nc2sc3c(c2c(=O)[nH]1)CCC3` was run?
**A.** Its activation is inactive: 3.1%.

**Q.** Which activation does the source give for `C/C(=C\C(=O)c1ccc(Br)cc1)N1CCCCC1` here?
**A.** Its activation is inconclusive: 30.6%.

**Q.** How did the activation turn out when `CN(C)c1ccc(/C=N/NC(=O)c2ccc3c(c2)OCO3)cc1` was run?
**A.** Its activation is inconclusive: 54.1%.

**Q.** For `Cc1cc(C)nc(/N=C(\N)Nc2ccc(S(=O)(=O)O)cc2)n1`, which activation is on record?
**A.** Its activation is inactive: 1.49%.

**Q.** `O=C(C(Sc1ccccc1)c1ccccc1)N1CCN(c2ccccc2F)CC1` (stereo unspecified) was tested. Which activation did it give?
**A.** The activation was inconclusive: 72.6%.

**Q.** `O=C(c1ccc([N+](=O)[O-])o1)N1CCN(c2nc3c(F)cc(F)cc3s2)CC1` was tested. Which activation did it give?
**A.** Its activation is inconclusive: 55.3%.

**Q.** For `CC(=O)c1c(C)nc2ccc(Br)cc2c1C(=O)O`, which activation is on record?
**A.** Its activation is inactive: -1.6%.

**Q.** With `Cc1ccc2nc(NC(=O)c3ccc(Cl)s3)sc2c1` as the molecule, how does the activation read?
**A.** The activation was inconclusive: 68.3%.

**Q.** Which activation does the source give for `Cc1ccc(C(c2nnnn2CS(=O)(=O)c2ccc(C)cc2)N2CCCC2)cc1` (stereo unspecified) here?
**A.** Its activation is inconclusive: 41.7%.

**Q.** How did the activation turn out when `O=C(CN1CCN(C/C=C/c2ccccc2)CC1)NCc1ccc(Cl)cc1` was run?
**A.** The activation was inactive: 1.01%.

**Q.** `CCO[C@H]1OC(C(=O)N2CCCCCCC2)=C[C@@H](c2ccccc2)[C@@H]1CCCO` was tested. Which activation did it give?
**A.** Its activation is inconclusive: 58.7%.

**Q.** With `CC(C)Cn1c(C(C)NC(=O)Cc2ccccc2)nc2ccccc21` (stereo unspecified) as the molecule, how does the activation read?
**A.** The activation was inconclusive: 56.9%.

**Q.** With `Cc1cc(CN(C)C(=O)c2cc(COc3ccc4ncccc4c3)on2)on1` as the molecule, how does the activation read?
**A.** Its activation is inactive: 1.91%.

**Q.** Which activation does the source give for `Cc1cccc(NC(=O)Nc2nnc(N3CCCCC3C)s2)c1C` (stereo unspecified) here?
**A.** The activation was inactive: -1.18%.

**Q.** How did the activation turn out when `CC(NC(=O)CCCCCCN1C(=O)c2ccccc2C1=O)c1ccc2c(c1)CCCC2` (stereo unspecified) was run?
**A.** Its activation is inactive: 7.49%.

**Q.** Which activation does the source give for `CCOc1ccccc1N(C(=O)c1snc(C(N)=O)c1N)C(C(=O)NC1CCCC1)c1ccco1` (stereo unspecified) here?
**A.** Its activation is inconclusive: 49.6%.

**Q.** With `COc1ccc(-c2csc(NC(=S)NC(=O)c3ccc4ccccc4c3)n2)cc1OC` as the molecule, how does the activation read?
**A.** Its activation is inactive: 6.27%.

**Q.** How did the activation turn out when `COC(=O)N/N=C/c1cc(Cl)c(OCc2ccccc2F)c(OC)c1` was run?
**A.** The activation was inconclusive: 35.3%.

**Q.** Which activation does the source give for `COCC(C)n1c(C)cc(C(=O)COC(=O)c2c(NC(C)=O)sc(C)c2C)c1C` (stereo unspecified) here?
**A.** Its activation is inactive: 1.86%.

**Q.** For `COC1CCCN(Cc2cn(C)nc2-c2ccc(Oc3ccccc3)cc2)C1` (stereo unspecified), which activation is on record?
**A.** The activation was inactive: 3.9%.

**Q.** For `CCc1ccc(/C=N/NC(=O)c2ccccn2)cc1`, which activation is on record?
**A.** Its activation is inconclusive: 64.6%.

**Q.** `Cc1ccc(C(=O)Nc2ccc3c(c2)OCCO3)cc1` was tested. Which activation did it give?
**A.** Its activation is inconclusive: 77%.

**Q.** `CCOc1ccc2nc(N(Cc3ccccc3)C(=O)CCNC(C)=O)sc2c1` was tested. Which activation did it give?
**A.** The activation was inconclusive: 31.8%.

**Q.** `Cc1cccc(OCCCC(=O)Nc2nccs2)c1` was tested. Which activation did it give?
**A.** The activation was inconclusive: 49.2%.

**Q.** With `COC(=O)N=Nc1c(O)n(Cc2ccccc2)c2ccccc12` as the molecule, how does the activation read?
**A.** Its activation is inactive: 7.34%.

**Q.** `CCOC(=O)c1ccc(NC(=S)NC2CCCC2)cc1` was tested. Which activation did it give?
**A.** The activation was inconclusive: 46.2%.

**Q.** How did the activation turn out when `Cc1ccc(NC(=O)c2ccccc2)s1` was run?
**A.** The activation was inconclusive: 56.5%.

**Q.** `S=C(NCc1ccccc1)NCc1cccc(Cl)c1` was tested. Which activation did it give?
**A.** Its activation is inconclusive: 60.3%.

**Q.** How did the activation turn out when `CC(CCc1ccccc1)NC(=O)Cc1ccc([N+](=O)[O-])cc1` (stereo unspecified) was run?
**A.** Its activation is inconclusive: 63.2%.

**Q.** `Cc1cc(OCCCn2ccnc2)cc(C(C)C)c1` was tested. Which activation did it give?
**A.** Its activation is inactive: 4.02%.

**Q.** Which activation does the source give for `NC(=O)C1(N2CCCCC2)CCN(C(=O)NC2CCCCC2)CC1` here?
**A.** Its activation is inactive: -1.38%.

**Q.** `O=C(CN1C(=O)c2cccnc2Oc2ccc(Cl)cc21)N1CCCCCC1` was tested. Which activation did it give?
**A.** The activation was inconclusive: 75.3%.

**Q.** For `CCCCC(=O)Nc1cc(N(C)C)nc2ccccc12`, which activation is on record?
**A.** Its activation is inconclusive: 32.2%.

**Q.** `CCCCCCSc1ccc([C@H]2N[C@@](CC(C)C)(C(=O)OC)[C@H]3C(=O)N(C)C(=O)[C@@H]23)cc1OC` was tested. Which activation did it give?
**A.** The activation was inconclusive: 45.5%.

**Q.** For `COc1ccc(C(=O)NCC2(c3ccccc3)CCCC2)c(OC)c1`, which activation is on record?
**A.** The activation was inconclusive: 43.3%.

**Q.** `CN(C)CCN(C(=O)C1CCN(S(=O)(=O)c2cccs2)CC1)c1nc2ccc(F)cc2s1` was tested. Which activation did it give?
**A.** The activation was inactive: 4.6%.

**Q.** How did the activation turn out when `O=C(NC(=S)Nc1ccccc1N1CCCC1)c1ccco1` was run?
**A.** The activation was inactive: -4.85%.

**Q.** How did the activation turn out when `Cc1ccc(CSCCNC(=O)c2ccc(NS(C)(=O)=O)cc2)cc1` was run?
**A.** Its activation is inconclusive: 56.1%.

**Q.** `Cc1cccc(C(=O)Nc2sc3c(c2C#N)CCCCC3)c1` was tested. Which activation did it give?
**A.** Its activation is inconclusive: 59.5%.

**Q.** With `Cc1ccc(C(=O)NCCCNC(=O)c2ccco2)cc1` as the molecule, how does the activation read?
**A.** The activation was inactive: -2.56%.

**Q.** `Cc1cnc(C(=O)NC(Cc2ccccc2)c2ccccc2)cn1` (stereo unspecified) was tested. Which activation did it give?
**A.** Its activation is inconclusive: 52.5%.

**Q.** With `Cc1ccc2[nH]c(=O)c(NC(N)=S)nc2c1` as the molecule, how does the activation read?
**A.** Its activation is inactive: 2.37%.

**Q.** `CCOC(=O)C1CCN(C2=NC(=O)/C(=C/c3ccc(Cl)cc3)S2)CC1` was tested. Which activation did it give?
**A.** The activation was inconclusive: 38.9%.

**Q.** With `Cn1cc(C=O)c2cc(S(=O)(=O)N3CCOCC3)ccc21` as the molecule, how does the activation read?
**A.** Its activation is inactive: 1.9%.

**Q.** With `COc1ccccc1/C=C/C(=O)Nc1cccnc1Cl` as the molecule, how does the activation read?
**A.** The activation was inconclusive: 44.4%.

**Q.** With `NC(=O)CSc1nc2ccccc2c(=O)n1CCc1ccccc1` as the molecule, how does the activation read?
**A.** Its activation is inconclusive: 66.2%.
